From PubChem BioAssay AID248 (DTP/NCI, 2004)
The list does not hold the whole screen: it gathers tests that were run many times, whatever their T/C, doses with no T/C, and many T/C values between a quarter and a half above the control. Other doses and runs of a compound stand elsewhere. T/C: endpoint of the treated group in % of that of the vehicle group. Some entries give survivors of the animals treated and no T/C: the source holds a T/C of zero for them, seemingly a mark for toxic or unscored doses. Some doses without a T/C left all or most animals alive at the check, yet need not have been tolerated: the source hardly ever lists a survival T/C far under the control, and the zero likely stands for such cases as well. Survivors were counted at the toxicity check, usually on the fifth day, unless a day is given; later deaths do not show. Schedule codes are those of the source, taken here to give the interval after Q, in days (D) or hours (H), and the number of doses after X. For survival time, the PubChem record calls one and a half times the control and up active, and a quarter to a half above the control has no call in these data; cut-offs in other NCI protocols can differ. Some T/C values carry the count of animals alive at the toxicity check (mostly the fifth day); without a count, all were alive then. Some entries were tested several times; their values stand side by side, smallest first. Signs of the kind (2×) give the number of equal values in this list. Some schedules carry Z or #; the key to these is not given.

System: L1210 leukemia ip in BDF1 mice, survival T/C
Test: NCI In Vivo Anticancer Drug Screen. Data for tumor model L1210 Leukemia (intraperitoneal) in B6D2F1 (BDF1) mice
Details: T/C endpoint: mean survival time, higher T/C = longer survival

How did the T/C (dose: 0.05 mg/kg/injection, schedule: Q04DX003 (ip), vehicle: saline) turn out when C1CN1c1nc(N2CC2)nc(N2CC2)n1 was run?
Its T/C is 127 and 131 % of control.

And the T/C (dose: 0.25 mg/kg/injection, schedule: Q01DX001 (ip), vehicle: saline)?
The T/C was 132 % of control.

What about the T/C (dose: 0.25 mg/kg/injection, schedule: Q01DX009 (ip), vehicle: saline, evaluated on day 30) of the same compound?
Its T/C is 103, 106, 110, 133, 136 % of control.

What about the T/C (dose: 0.25 mg/kg/injection, schedule: Q01DX009 (ip), vehicle: saline, evaluated on day 40) of the same compound?
The T/C was 121 % of control.

What about the T/C (dose: 0.25 mg/kg/injection, schedule: Q01DX010 (ip), vehicle: saline) of the same compound?
The T/C was 115, 121, 129, 145 % of control.

And the T/C (dose: 0.25 mg/kg/injection, schedule: Q01DX010 (oral), vehicle: carboxymethylcellulose (CMC))?
Its T/C is 126 % of control.

What about the T/C (dose: 0.25 mg/kg/injection, schedule: Q01DX Z (im), vehicle: saline) of the same compound?
The T/C was 140 % of control.

And the T/C (dose: 0.25 mg/kg/injection, schedule: Q01DX Z (ip), vehicle: saline)?
The T/C was 87, 139, 143, 151 % of control.

What about the T/C (dose: 0.25 mg/kg/injection, schedule: Q#A X Z (ip), vehicle: saline) of the same compound?
The T/C was 139 % of control.

What about the T/C (dose: 0.4 mg/kg/injection, schedule: Q01DX009 (ip), vehicle: saline) of the same compound?
Its T/C is 137 % of control.

What about the T/C (dose: 0.44 mg/kg/injection, schedule: Q01DX005 (ip), vehicle: saline) of the same compound?
Its T/C is 125 % of control.

And the T/C (dose: 0.5 mg/kg/injection, schedule: Q01DX005 (ip), vehicle: saline)?
The T/C was 135 % of control.

And the T/C (dose: 0.5 mg/kg/injection, schedule: Q01DX009 (ip), vehicle: saline, evaluated on day 30)?
The T/C was 150 (2×), 156, 161, 196 % of control.

And the T/C (dose: 0.5 mg/kg/injection, schedule: Q01DX009 (ip), vehicle: saline, evaluated on day 40)?
The T/C was 158 % of control.

And the T/C (dose: 0.5 mg/kg/injection, schedule: Q01DX009 (sc), vehicle: saline)?
Its T/C is 141 % of control.

What about the T/C (dose: 0.5 mg/kg/injection, schedule: Q01DX010 (ip), vehicle: saline) of the same compound?
Its T/C is 159, 169, 170, 175 % of control.

And the T/C (dose: 0.5 mg/kg/injection, schedule: Q01DX Z (ip), vehicle: carboxymethylcellulose (CMC))?
The T/C was 140 % of control.

And the T/C (dose: 0.5 mg/kg/injection, schedule: Q01DX Z (ip), vehicle: saline)?
Its T/C is 89, 160, 165, 185 % of control.

And the T/C (dose: 0.5 mg/kg/injection, schedule: Q01DX Z (sc), vehicle: saline)?
The T/C was 129 % of control.

And the T/C (dose: 0.5 mg/kg/injection, schedule: Q04DX003 (ip), vehicle: Klucel (hydroxypropylcellulose) (HPC))?
Its T/C is 126 % of control.

And the T/C (dose: 0.5 mg/kg/injection, schedule: Q04DX003 (ip), vehicle: saline, evaluated on day 20)?
Its T/C is 154 % of control.

What about the T/C (dose: 0.5 mg/kg/injection, schedule: Q04DX003 (ip), vehicle: saline, evaluated on day 30) of the same compound?
The T/C was 104 [5 of 6 alive], 111, 115, 116, 122, 125, 128 % of control (2×).

What about the T/C (dose: 0.5 mg/kg/injection, schedule: Q04DX003 (ip), vehicle: saline, evaluated on day 60) of the same compound?
Its T/C is 120, 132, 139 % of control.

And the T/C (dose: 0.57 mg/kg/injection, schedule: Q01DX001 (ip), vehicle: saline)?
Its T/C is 118, 150, 163, 172 % of control.

What about the T/C (dose: 0.86 mg/kg/injection, schedule: Q01DX001 (ip), vehicle: saline) of the same compound?
The T/C was 129 % of control.

And the T/C (dose: 0.9 mg/kg/injection, schedule: Q## X003 (ip), vehicle: saline)?
Its T/C is 140 % of control.

What about the T/C (dose: 0.9 mg/kg/injection, schedule: Q## X004 (ip), vehicle: saline) of the same compound?
Its T/C is 139 % of control.

What about the T/C (dose: 0.96 mg/kg/injection, schedule: Q## X024 (ip), vehicle: saline) of the same compound?
Its T/C is 131 % of control.

And the T/C (dose: 1.0 mg/kg/injection, schedule: Q01DX001 (ip), vehicle: saline)?
The T/C was 127 and 128 % of control.

What about the T/C (dose: 1.0 mg/kg/injection, schedule: Q01DX005 (ip), vehicle: saline, evaluated on day 40) of the same compound?
Its T/C is 174 and 245 % of control.

What about the T/C (dose: 1.0 mg/kg/injection, schedule: Q01DX005 (ip), vehicle: saline, evaluated on day 60) of the same compound?
Its T/C is 188 and 191 % of control.

And the T/C (dose: 1.0 mg/kg/injection, schedule: Q01DX009 (ip), vehicle: saline, evaluated on day 30)?
The T/C was 95, 97, 101, 128 % of control.

And the T/C (dose: 1.0 mg/kg/injection, schedule: Q01DX009 (ip), vehicle: saline, evaluated on day 40)?
The T/C was 117 % of control.

And the T/C (dose: 1.0 mg/kg/injection, schedule: Q01DX009 (sc), vehicle: saline)?
The T/C was 127 % of control.

And the T/C (dose: 1.0 mg/kg/injection, schedule: Q01DX010 (ip), vehicle: saline)?
Its T/C is 88, 96, 103, 159 % of control.

And the T/C (dose: 1.0 mg/kg/injection, schedule: Q01DX Z (oral), vehicle: saline)?
Its T/C is 130 % of control.

And the T/C (dose: 1.0 mg/kg/injection, schedule: Q04DX003 (ip), vehicle: saline, evaluated on day 20)?
The T/C was 98 % of control.

And the T/C (dose: 1.0 mg/kg/injection, schedule: Q04DX003 (ip), vehicle: saline, evaluated on day 30)?
Its T/C is 119, 146, 152, 157 (2×), 166, 170, 178 % of control.

What about the T/C (dose: 1.0 mg/kg/injection, schedule: Q04DX003 (ip), vehicle: saline, evaluated on day 45) of the same compound?
Its T/C is 176 % of control.

What about the T/C (dose: 1.0 mg/kg/injection, schedule: Q04DX003 (ip), vehicle: saline, evaluated on day 60) of the same compound?
Its T/C is 146, 151, 154, 169, 200 % of control.

And the T/C (dose: 1.0 mg/kg/injection, schedule: Q## X002 (ip), vehicle: saline)?
Its T/C is 132 % of control.

And the T/C (dose: 1.0 mg/kg/injection, schedule: Q## X003 (ip), vehicle: saline)?
Its T/C is 129 % of control.

And the T/C (dose: 1.0 mg/kg/injection, schedule: Q## X006 (ip), vehicle: saline)?
The T/C was 134 % of control.

What about the T/C (dose: 1.0 mg/kg/injection, schedule: Q## X024 (ip), vehicle: saline) of the same compound?
Its T/C is 131 % of control.

And the T/C (dose: 1.3 mg/kg/injection, schedule: Q01DX001 (ip), vehicle: saline, evaluated on day 30)?
Its T/C is 159 and 164 % of control.

And the T/C (dose: 1.3 mg/kg/injection, schedule: Q01DX001 (ip), vehicle: saline, run until all animals had died)?
The T/C was 201 and 258 % of control.

What about the T/C (dose: 1.4 mg/kg/injection, schedule: Q01DX001 (ip), vehicle: saline) of the same compound?
Its T/C is 134 % of control.

And the T/C (dose: 1.5 mg/kg/injection, schedule: Q03DX Z (ip), vehicle: saline)?
Its T/C is 145 % of control.

What about the survivor count (dose: 1.6 mg/kg/injection, schedule: Q01DX009 (ip), vehicle: saline) of the same compound?
The survivor count was 6 of 6.

And the T/C (dose: 2.0 mg/kg/injection, schedule: Q01DX001 (ip), vehicle: saline, evaluated on day 30)?
Its T/C is 119 and 177 % of control.

What about the T/C (dose: 2.0 mg/kg/injection, schedule: Q01DX001 (ip), vehicle: saline, evaluated on day 40) of the same compound?
Its T/C is 163 and 190 % of control.

What about the survivor count (dose: 2.0 mg/kg/injection, schedule: Q01DX001 (ip), vehicle: saline) of the same compound?
Its survivor count is 3 of 6.

And the T/C (dose: 2.0 mg/kg/injection, schedule: Q01DX001 (ip), vehicle: saline, run until all animals had died)?
The T/C was 104, 160, 166 % of control [6 of 7 alive].

And the survivor count (dose: 2.0 mg/kg/injection, schedule: Q01DX005 (ip), vehicle: saline)?
The survivor count was 10 of 10.
